Screen size: about 1,600 compounds; about 20 (1%) showed an effect of 50% or more. The list shows a part of the results.
These molecules were tested on T1, E. coli pLC1021 (luc-trpAt trans-translation reporter). Conditions: reporter signal, KKL-35 = 100%; rise means trans-translation inhibition; 2 h, 20 µM.
T1 construct: pLC1021 luc-trpAt reporter strain
Design: species or system Escherichia coli pLC1021; luc-trpAt non-stop luciferase reporter; luminescence rises when trans-translation is inhibited; normalized to KKL-35 and DMSO
How it was run: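 Cells carrying the non-stop luc-trpAt reporter were exposed to 20 µM compound for 2 h at room temperature, then Bright-Glo was added and luminescence read at 560 nm after 10 min. Signals were normalised per plate to DMSO and 20 µM KKL-35 wells. Hits: activity one SD above the median; ≥2 biological repeats averaged.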

Compound | % activation [%]
Cc1nn(-c2ccccc2)c2nc(O)c(CNCc3ccccc3OC(C)C)cc12 [KKL-1037] | 0
Cc1ccc(NC(=O)C(=O)NNC(=O)c2ccco2)cc1Cl [KKL-1500] | 0
Cc1ccc2c(c1)c(-c1ccccc1)c(-c1ccccc1)n2CC(O)CN1CCN(CCO)CC1 (stereo not drawn) [KKL-1406] | 4
CC(C)(C)c1ccc(OCCN2C(=O)C(=O)c3cc(Br)ccc32)cc1 [KKL-0862] | 0
CCn1nnc(NC(=O)c2sc3ccccc3c2Cl)n1 [KKL-0870] | 0
CC(C)(C)c1ccc(C(=O)Nc2cccc(NC(=O)c3cccs3)c2)cc1 [KKL-0867] | 0
CSc1ccccc1C(=O)C1CCCN(C(=O)c2ccc3c(c2)no[n+]3[O-])C1 (stereo not drawn) [KKL-0339] | 0
CN(CC1Cc2ccccc2CN1C)C(=O)c1cc(COc2cncc(Cl)c2)on1 (stereo not drawn) [KKL-1186] | 0
Cc1ccc(C(NC(=O)C2(c3ccc(Cl)cc3)CCOCC2)c2cccnc2)cc1 (stereo not drawn) [KKL-0692] | 19
Cc1ccc(Cl)cc1N=C1C=C(NS(=O)(=O)c2cccs2)c2ccccc2C1=O [KKL-1115] | 0
OC(CNCCc1ccc(C(F)(F)F)cc1)COc1cccc2ccccc12 (stereo not drawn) [KKL-0794] | 0
O=C(Nc1nccs1)c1ccc(CSc2ccccc2)o1 [KKL-0586] | 0
COc1cc2cc(-c3nc4ccccc4[nH]3)c(N)nc2cc1OC [KKL-0395] | 22
COc1cccc(C2(NC(=O)c3cnc(SC)nc3)CCCC2)c1 [KKL-0678] | 4
COc1ccc2c(c1)NC1(COC3(CCN(Cc4ccccc4Cl)CC3)C1)c1cccn1-2 (stereo not drawn) [KKL-0446] | 3
O=C(/C=C/c1ccco1)Nc1nc(-c2ccccn2)cs1 [KKL-0814] | 0
CCCn1nnc(NC(=O)COc2ccc(C3CCCCC3)cc2)n1 [KKL-1397] | 0
Cc1cccc(-c2cccc(NC(=O)C3CCCN(Cc4ccc(C#CCO)s4)C3)c2)c1 (stereo not drawn) [KKL-1130] | 4
C=Cn1cc(CN2CCCN(c3cccc(OC)c3)CC2)c(C)n1 [KKL-0548] | 0
CCCC(=O)OCCNc1cc(SCc2ccco2)c2nonc2c1[N+](=O)[O-] [KKL-1142] | 0
COc1ccc(CCNc2cc(C)nc3c(-c4ccc(Cl)cc4)c(C)nn23)cc1OC [KKL-0901] | 0
CC(=O)c1ccc2[nH]c3ccc(C(C)=O)cc3c2c1 [KKL-1408] | 0
CCC(=O)NC(=S)Nc1ccc(NC(=O)c2cc(I)ccc2Cl)cc1 [KKL-1487] | 7
CSCCC(=O)N1CCC(C(=O)Nc2cccc(-c3cccc(Cl)c3)c2)CC1 [KKL-1141] | 0
CC(C)(C)c1ccc(-c2c[n+](-c3ccc(Br)cc3)c3n2CCCS3)cc1 [KKL-0949] | 0
Cc1ccc(/N=C(\N)Nc2nc(C)cc(N3CCCCC3)n2)c(C)c1 [KKL-1617] | 0
CC(=O)Nc1ccc2cccc(O)c2n1 [KKL-0957] | 55

An excerpt from above in order of SMILES length, rising:
Compound | % activation [%]
CC(=O)Nc1ccc2cccc(O)c2n1 [KKL-0957] | 55
CCn1nnc(NC(=O)c2sc3ccccc3c2Cl)n1 [KKL-0870] | 0
CC(=O)c1ccc2[nH]c3ccc(C(C)=O)cc3c2c1 [KKL-1408] | 0
COc1cccc(C2(NC(=O)c3cnc(SC)nc3)CCCC2)c1 [KKL-0678] | 4
Cc1ccc(/N=C(\N)Nc2nc(C)cc(N3CCCCC3)n2)c(C)c1 [KKL-1617] | 0
CC(C)(C)c1ccc(C(=O)Nc2cccc(NC(=O)c3cccs3)c2)cc1 [KKL-0867] | 0
COc1ccc(CCNc2cc(C)nc3c(-c4ccc(Cl)cc4)c(C)nn23)cc1OC [KKL-0901] | 0
CSc1ccccc1C(=O)C1CCCN(C(=O)c2ccc3c(c2)no[n+]3[O-])C1 (stereo not drawn) [KKL-0339] | 0
Cc1cccc(-c2cccc(NC(=O)C3CCCN(Cc4ccc(C#CCO)s4)C3)c2)c1 (stereo not drawn) [KKL-1130] | 4
COc1ccc2c(c1)NC1(COC3(CCN(Cc4ccccc4Cl)CC3)C1)c1cccn1-2 (stereo not drawn) [KKL-0446] | 3
Cc1ccc2c(c1)c(-c1ccccc1)c(-c1ccccc1)n2CC(O)CN1CCN(CCO)CC1 (stereo not drawn) [KKL-1406] | 4

Additional records:

Compound | % activation [%]
O=C(Nc1ccc(Cl)cc1)c1cc2c(cc1O)[nH]c1ccccc12 [KKL-0896] | 102
CCOC(=O)CSc1nnc(-c2ccc([N+](=O)[O-])cc2)o1 [KKL-1633] | 0
COC(=O)COc1ccc(NC(=O)c2ccccc2F)cc1 [KKL-1387] | 0
O=C(NCc1ccco1)c1cnn2c1NC(c1ccc(Br)cc1)CC2C(F)(F)F (stereo not drawn) [KKL-0962] | 14
COC(=O)COc1ccc(NC(=O)COc2cccc(C)c2)cc1 [KKL-1504] | 0
CC1(C)Oc2ccc3ccc(=O)oc3c2C(C=O)=C1Cl [KKL-0786] | 0
C1=C(CN2CCC3(CC2)Nc2ccccc2-n2cccc23)COc2ccccc21 [KKL-1209] | 7
CCCc1ccc(S(=O)(=O)Nc2ccc(CN3CCN(CC4CC4)CC3)cc2)cc1 [KKL-1800] | 3
CCOC(=O)CSc1nnc(-c2cc(OC)c(OC)c(OC)c2)o1 [KKL-1514] | 0
Cc1nc2sccn2c1C(=O)N1CCc2c([nH]c3ccccc23)C1c1ccc(F)cc1 (stereo not drawn) [KKL-0488] | 4
COc1ccc(Cl)cc1NC(=O)CN1CCC(c2nc3cc(Cl)ccc3[nH]2)CC1 [KKL-0528] | 0
COc1ccc(-c2nc(-c3cccc(NC(=O)Cc4ccc(F)cc4)c3)no2)cc1OC [KKL-1809] | 4
CC(C)(C)c1ccccc1OCCCON1C(=N)N=C(N)NC1(C)C [KKL-1847] | 15
N=C1SCC(=O)N1c1ncc(Cc2cccc(Cl)c2)s1 [KKL-1645] | 2
O=C(Nc1nc2c(Cl)cccc2s1)c1ccc([N+](=O)[O-])o1 [KKL-1312] | 0
O=C(c1cc2c(s1)CCC2)N1CCN(Cc2ccc3c(c2)OCO3)CC1 [KKL-1851] | 0
CCCN(CCC)CC(O)Cn1cc(/C=C/C(=O)c2ccccc2)c2ccccc21 (stereo not drawn) [KKL-1230] | 0
O=[N+]([O-])c1c(-n2cccn2)nn(-c2ccccc2)c1C(Cl)Cl [KKL-1260] | 0
COc1ccc2[nH]c(CN3CCC(O)(c4cccc(C)c4)CC3)c(C)c2c1 [KKL-0926] | 5
COC(=O)c1ccc(Oc2ccc(-c3csc(C)n3)cc2F)nn1 [KKL-1737] | 3
COc1cccc(-c2ccccc2NC(=O)C2CCN(Cc3cc4ccccc4[nH]3)CC2)c1 [KKL-1150] | 2
CSc1ccccc1C(=O)Nc1nc(-c2ccccn2)cs1 [KKL-1845] | 8
Cc1ccc2oc(C(=O)N3CCC(Oc4cccnc4)CC3)cc2c1 [KKL-0560] | 4
CCCCNC(=O)c1cc2n(n1)C(C(F)(F)F)CC(c1ccccc1)N2 (stereo not drawn) [KKL-1022] | 3
O=C(OCc1c(F)cccc1Cl)c1ccc(-n2ncc(Cl)c(Cl)c2=O)cc1 [KKL-1808] | 4
CCc1nc2ccccc2n1CC(O)COc1ccc(I)cc1 (stereo not drawn) [KKL-0760] | 0
CC(C)c1ccc(Nc2nnc(SCC(=O)Nc3ncc(S(=O)(=O)c4ccc([N+](=O)[O-])cc4)s3)s2)cc1 [KKL-0852] | 1
